Measured values reported in patent US20100056439A1 (DOMANTIS, published 2010).
Results are given in words; binding and its absence hold for the method and conditions named. Some results given as binding are weak or reduced against the parent protein; the word gives no strength.

Experiments:
[1] = biological target: EGFR (form not stated; KD column of Table 3 and BIAcore epitope mapping) (UniProt P00533); experiment: competitive binding assay, BIAcore biosensor; competitor DOM16-39-200
[2] = biological target: EGFR (form not stated; KD column of Table 3 and BIAcore epitope mapping) (UniProt P00533); experiment: competitive binding assay, BIAcore biosensor; reference DOM16-39-200

Row | Binder | binding [1] | binding [2]
1 | DOM16-72 (protein) VL: DIQMTQSPSSLSASVGDRVTITCRASQHIGVSLDWYQQKPGKAPKLLIYYGSELQSGVPSRFSGSGSGTDFTLTISSLQPEDFATYYCQQYVTHPTTFGQGTKVEIKR | binds | –
2 | DOM16-32 (protein) VL: DIQMTQSPSSLSASVGDRVTITCRASKMIDENLAWYQQKPGKAPKLLILRSSGLQSGVPSRFSGSGSGTDFTLTISSLQPEDFATYYCHQGHSAPGTFGQGTKVEIKR | – | binds
3 | DOM16-52 (protein) VH: EVQLLESGGGLVQPGGSLRLSCAASGFTFAEQPMTWARQAPGKGLEWVSSISSFGDLTYYADSVKGRFTISRDNSKNTLYLQMNSLRAEDTAVYYCAKGVYRISRFDYWGQGTLVTVSS | – | binds

Now from value to binder:

Row | binding [1] | binding [2] | Binder
4 | binds | – | DOM16-112 (protein) DIQMTQSPSSLSASVGDRVTITCRASQNIGTNLKWYQQKPEKAPKLLIYYGSLLQSGVPSRFSGSGSGTDFTLTISSLQPEDFATYYCQQDYDFPYTFGQGTKVEIKR
5 | – | binds | DOM16-80 (protein) DIQMTQSPSSLSASVGDRVTITCRASQNIYMNLEWYQQKPGKAPKLLIVFGSWLQSGVPSRFSGSGSGTDFTLTISSLQPEDFATYYCRQTEAPPSTFGQGTKVEIKR
6 | binds | – | DOM16-79 (protein) DIQMTQSPSSLSASVGDRVTITCRASQWIGILLDWYQQKPGEAPKLLIYYASFLQSGVPSRFSGSGSGTDFTLTISSLQPEDFATYYCQRSDLSPLTFGQGTKVEIKR
